Results of single-concentration screens

The chains behind the UniProt entries cited, without tags or fusion partners. Residues count along the entry.
UniProt I6X8D2, whole entry: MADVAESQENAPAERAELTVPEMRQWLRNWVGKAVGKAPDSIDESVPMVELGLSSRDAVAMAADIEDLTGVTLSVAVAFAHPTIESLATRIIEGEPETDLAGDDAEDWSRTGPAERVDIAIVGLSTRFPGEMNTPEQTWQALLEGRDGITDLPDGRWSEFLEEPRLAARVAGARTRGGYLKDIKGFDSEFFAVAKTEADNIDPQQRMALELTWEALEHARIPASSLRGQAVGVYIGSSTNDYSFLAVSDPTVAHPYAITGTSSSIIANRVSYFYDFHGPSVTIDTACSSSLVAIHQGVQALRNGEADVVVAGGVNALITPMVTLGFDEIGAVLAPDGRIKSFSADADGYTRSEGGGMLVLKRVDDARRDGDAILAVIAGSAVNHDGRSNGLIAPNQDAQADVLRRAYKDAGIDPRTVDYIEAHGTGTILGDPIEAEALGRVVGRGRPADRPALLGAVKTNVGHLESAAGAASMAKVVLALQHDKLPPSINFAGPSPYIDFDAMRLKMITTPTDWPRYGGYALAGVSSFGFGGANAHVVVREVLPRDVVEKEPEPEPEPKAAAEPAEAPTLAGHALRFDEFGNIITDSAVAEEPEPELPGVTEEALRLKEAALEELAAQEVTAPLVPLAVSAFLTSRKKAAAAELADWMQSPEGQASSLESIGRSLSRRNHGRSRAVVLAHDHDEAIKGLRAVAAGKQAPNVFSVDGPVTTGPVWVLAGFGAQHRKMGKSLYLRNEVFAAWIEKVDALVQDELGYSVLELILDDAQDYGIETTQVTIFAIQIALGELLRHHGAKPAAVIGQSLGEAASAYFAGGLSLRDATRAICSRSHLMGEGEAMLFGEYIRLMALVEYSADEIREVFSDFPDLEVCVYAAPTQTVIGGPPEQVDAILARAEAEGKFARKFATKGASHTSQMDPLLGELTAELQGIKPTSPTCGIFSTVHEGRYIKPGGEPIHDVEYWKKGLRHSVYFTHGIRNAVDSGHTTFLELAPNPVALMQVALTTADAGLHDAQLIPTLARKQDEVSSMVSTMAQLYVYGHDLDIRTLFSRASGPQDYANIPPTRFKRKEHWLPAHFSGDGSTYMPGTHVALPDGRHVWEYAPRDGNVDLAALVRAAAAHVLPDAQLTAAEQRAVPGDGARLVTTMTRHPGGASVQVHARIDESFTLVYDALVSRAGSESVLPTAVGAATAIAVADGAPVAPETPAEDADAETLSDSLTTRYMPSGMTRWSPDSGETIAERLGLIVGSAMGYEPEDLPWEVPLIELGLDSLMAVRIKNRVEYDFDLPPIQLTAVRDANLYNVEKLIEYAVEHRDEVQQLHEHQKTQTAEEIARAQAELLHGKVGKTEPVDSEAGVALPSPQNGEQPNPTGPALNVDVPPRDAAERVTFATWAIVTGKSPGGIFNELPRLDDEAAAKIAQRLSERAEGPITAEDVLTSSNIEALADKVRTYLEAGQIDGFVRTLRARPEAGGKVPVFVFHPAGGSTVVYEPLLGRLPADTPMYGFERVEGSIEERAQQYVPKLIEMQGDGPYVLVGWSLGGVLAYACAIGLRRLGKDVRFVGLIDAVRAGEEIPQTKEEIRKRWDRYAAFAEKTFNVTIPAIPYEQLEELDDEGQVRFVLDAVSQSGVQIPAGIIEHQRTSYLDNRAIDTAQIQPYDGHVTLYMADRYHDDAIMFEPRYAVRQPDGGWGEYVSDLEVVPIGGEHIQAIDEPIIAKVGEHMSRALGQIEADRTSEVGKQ
UniProt A4I591, 1-473: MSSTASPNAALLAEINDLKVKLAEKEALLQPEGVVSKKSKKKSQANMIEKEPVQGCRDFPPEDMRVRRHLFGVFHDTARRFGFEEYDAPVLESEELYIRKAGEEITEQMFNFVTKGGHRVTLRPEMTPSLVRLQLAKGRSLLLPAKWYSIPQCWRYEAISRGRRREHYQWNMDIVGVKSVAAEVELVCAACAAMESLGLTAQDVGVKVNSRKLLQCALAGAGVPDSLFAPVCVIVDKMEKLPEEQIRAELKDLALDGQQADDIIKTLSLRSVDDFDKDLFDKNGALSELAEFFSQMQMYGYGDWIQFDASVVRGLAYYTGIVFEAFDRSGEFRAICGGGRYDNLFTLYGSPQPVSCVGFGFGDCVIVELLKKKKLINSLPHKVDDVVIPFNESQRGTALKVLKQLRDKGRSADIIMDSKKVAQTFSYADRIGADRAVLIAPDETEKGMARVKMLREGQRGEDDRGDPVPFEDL
UniProt P9WPC5, whole entry: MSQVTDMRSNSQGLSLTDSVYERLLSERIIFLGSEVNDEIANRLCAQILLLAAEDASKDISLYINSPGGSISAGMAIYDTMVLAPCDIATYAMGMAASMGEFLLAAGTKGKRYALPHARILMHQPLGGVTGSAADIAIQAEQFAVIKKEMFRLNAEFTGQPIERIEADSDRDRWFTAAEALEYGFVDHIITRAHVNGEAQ
UniProt P9WPC3, whole entry partner: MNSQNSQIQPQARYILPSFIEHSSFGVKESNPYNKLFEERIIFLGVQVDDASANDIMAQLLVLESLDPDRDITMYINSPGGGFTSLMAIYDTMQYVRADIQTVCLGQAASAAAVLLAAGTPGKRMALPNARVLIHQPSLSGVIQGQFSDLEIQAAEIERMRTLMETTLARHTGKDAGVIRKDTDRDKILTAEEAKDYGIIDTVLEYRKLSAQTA
UniProt P9WNZ1, whole entry: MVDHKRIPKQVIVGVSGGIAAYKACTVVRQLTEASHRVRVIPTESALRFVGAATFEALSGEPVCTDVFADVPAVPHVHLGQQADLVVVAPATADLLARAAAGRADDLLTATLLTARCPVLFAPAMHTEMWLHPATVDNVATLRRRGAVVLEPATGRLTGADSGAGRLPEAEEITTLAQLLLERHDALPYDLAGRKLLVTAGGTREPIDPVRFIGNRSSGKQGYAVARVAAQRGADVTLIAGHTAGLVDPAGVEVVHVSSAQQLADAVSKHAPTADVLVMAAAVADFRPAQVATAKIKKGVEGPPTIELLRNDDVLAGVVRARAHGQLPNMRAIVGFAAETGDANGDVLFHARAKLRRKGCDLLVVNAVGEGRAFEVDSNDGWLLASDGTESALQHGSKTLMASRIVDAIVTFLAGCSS

The values are deposited in ChEMBL (CHEMBL3988442, “University of Dundee, Small-Polar-MMV Screening Library” (2021)).

A: 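Enzyme assay of the thioesterase domain of polyketide synthase 13; the read-out is not stated. Target: Polyketide synthase Pks13, Mycobacterium tuberculosis (UniProt I6X8D2). Tested at 30 µM. Higher reads as stronger inhibition (inferred from which compounds were picked for retests). Size under these conditions: about 67,000 compounds, about 300 of them at 50% or above in at least one test.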
B: 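Enzyme assay of histidyl-tRNA synthetase; the read-out is not stated. Target: Histidine-tRNA ligase, Leishmania infantum (UniProt A4I591). Tested at 30 µM. The record gives no direction; compounds that gave an IC50 in retests scored well above the rest, so higher reads as stronger inhibition. The assay is labelled LdHisRS but filed under L. infantum. Of about 69,000 compounds tested this way, about 410 (0.6%) reached 50% or more in at least one test.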
C: 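Cell assay of Leishmania donovani living inside macrophages; the read-out is not stated. Compounds at 30 µM. Higher reads as stronger inhibition (inferred: compounds with an IC50 in retests scored well above the rest). Of about 69,000 compounds tested this way, about 1,000 (1.5%) reached 50% or more in at least one test.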
D: 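ClpP1P2, Mycobacterium tuberculosis (UniProt P9WPC5 and UniProt P9WPC3). Protease assay of ClpP1P2, read by the AMC dye that it sets free. Tested at 50 µM. Direction is inferred from only a few compounds that gave an IC50; most scored high, so higher reads as stronger inhibition. Most other retested compounds had strongly negative values. Size under these conditions: about 69,000 compounds, about 10 of them at 50% or above in at least one test.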
E: 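Assay of Toxoplasma gondii numbers, read through their beta-galactosidase reporter with a colour substrate. Tested at 10 µM. The record gives no direction; the compounds picked for IC50 retests had high values, so higher reads as fewer parasites. Size under these conditions: about 67,000 compounds, about 260 of them at 50% or above in at least one test.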
F: 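Enzyme assay of CoaBC with a phosphate dye (Biomol Green) read at 650 nm. Target: Coenzyme A biosynthesis protein CoaBC, Mycobacterium tuberculosis (UniProt P9WNZ1). Compounds at 30 µM. Higher reads as stronger inhibition, judged from the few compounds that gave an IC50. Most strong results did not repeat in a second test. About 67,000 compounds were tested under these conditions; 0.06% (about 40) showed 50% or more at least once.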

Each number is a percent effect as filed.
The record does not define 0% and 100%; most values in the screen are far below 50% and negative numbers occur (in some assays of this library far below -100).
The compounds are a random part of those screened.
Two or more numbers in one place are separate tests of the same structure; such repeats can differ widely.
A dash means the value is not listed here; it may have been measured.

| # | structure | A | B | C | D | E | F |
|---|---|---|---|---|---|---|---|
| 1 | `CC(C1CCN(Cc2cnn(C)c2C2CC2)CC1)N1CCN(C)CC1` (stereo not drawn) | -49.9 | 31.43 | 18.82 | 2.706 | 3.76 | - |
| 2 | `CN1CCN(Cc2cnc3n2CCN(Cc2cccs2)C3)CC1.O=C(O)C(F)(F)F.O=C(O)C(F)(F)F.O=C(O)C(F)(F)F` | - | - | 40.72 | - | 2.205 | - |
| 3 | `Cc1ccc(C(=O)N2CCOCC2)cc1NCc1ccsc1` | -16.2 | 16 | 12.62 | -8.801 | -1.757 | -0.7426 |
| 4 | `Cc1nc(N2CCC(C(O)c3nccn3C)CC2)c2cccnc2n1` (stereo not drawn) | -10.86 | 0 | 1.018 | 13.1 | -15.62 | -2.73 |
| 5 | `CS(=O)(=O)c1cn[nH]c1C1CCCCN1C(=O)c1cnccn1` (stereo not drawn) | -5.662 | 26.32 | 22.92 & 12.36 | 3.933 | -5.116 | -3.163 |
| 6 | `Cc1nc(CN(C)c2nccc(N(C)C)n2)cs1` | 2.629 | 3.947 | 1.072 | -19.11 | 4.162 | 4.839 |
| 7 | `CC(NS(=O)(=O)N(C)C)c1cccc(-n2cccn2)c1` (stereo not drawn) | -24.89 | 7.563 | 11.7 | -0.2144 | -1.705 | 3.089 |
| 8 | `Cc1cc(C[S+]([O-])CC(=O)NCc2cccc(Cl)c2)no1` (stereo not drawn) | -22.28 | 3.478 | 1.525 | -21.1 | 5.893 | 1.935 |
| 9 | `O=C1COc2ccc(S(=O)(=O)NCC3CCCO3)c3c2N1CCC3` (stereo not drawn) | -4.691 | 1.695 | 24.47 | -23.23 | -29.66 | -0.3764 |
| 10 | `O=C(CCN1CCc2c(ncn2C2CC2)C1)NC1CCCC1` | -29.89 | 15.38 | 6.894 | 4.502 | 4.374 | -5.898 |
| 11 | `NC(=O)c1ccc(OCC(=O)N2CCCC2c2ccc[nH]2)cc1` (stereo not drawn) | 29.35 | 17.07 | -3.901 | -10.75 | -23.91 | 2.417 |
| 12 | `N#Cc1cccnc1N1CCC(c2nc(C(F)(F)F)c[nH]2)CC1` | -15.96 | 10 | -39.37 | 3.799 | -2.055 | 1.951 |
| 13 | `O=C(O)C(F)(F)F.O=C(O)C(F)(F)F.[H][C@@]12COC[C@]1(C(=O)NCc1ccccn1)CN(Cc1ccccc1F)C2` | - | - | 5.572 | - | 10.92 | - |
| 14 | `c1ccc(Cc2nc(CNC3CCC4(CCNCC4)CC3)no2)cc1` | -7.254 | 22.45 | -22.96 | 14.13 | 4.831 | -21.32 |
| 15 | `O=S(=O)(c1cccnc1)N1CCCC1COc1ccccc1` (stereo not drawn) | 15.57 | 0 | 2.512 | -3.391 | 8.083 | 4.538 |
| 16 | `Cc1ccoc1C(=O)N1CC(C(=O)N2CCOCC2)C2(CCOCC2)C1` (stereo not drawn) | 10.04 | 6.195 | -15.48 & -7.824 | 15.55 | 0.9029 | -2.737 |
| 17 | `CN(C)CCNC(=O)c1nc2c(o1)CN(C(=O)c1cccnc1)C2` | 30.68 | 0 | - | -6.156 | - | -6.515 |
| 18 | `COC(=O)NCCC(=O)NC(C)Cc1cccc(Br)c1` (stereo not drawn) | -20.78 | -44.64 | 13.05 | -26.09 | -33.53 | -10.27 |
| 19 | `CCC(CC)C(CNC(=O)Nc1ccc(OC)cc1)N1CCOCC1` (stereo not drawn) | -29.58 | 11.97 | -1.862 | -1.625 | -4.004 | 11.11 |
| 20 | `Cc1cc(C(=O)Nc2ccc(-c3nnc(N(C)C)o3)cc2)oc1C` | -0.7865 | 5.208 | 3.971 | -4.434 | 1.163 | -3.125 |
| 21 | `Cc1ccc(CN2CCCn3nnc(COCCN(C)C)c3C2)s1` | -2.075 | 11 | - | 0.3148 | - | 5.562 |
| 22 | `CN(CC(=O)Nc1cnn(-c2ccccc2S(C)(=O)=O)c1)C1CC1` | -18.56 | 8.046 | 52.47 | 0.191 | -7.6 | 10.29 |
| 23 | `[H][C@]12CC[C@]([H])(CN(C(=O)Nc3ccccc3C(C)C)C1)N(C)C2=O` | - | - | -8.279 | - | 6.351 | - |
| 24 | `O=C(N1CCCCC1)N1CCCC1c1nnc2n1CCNC2` (stereo not drawn) | -18.71 | 16.55 | 1.518 | -5.32 | -7.249 | -1.053 |
| 25 | `[H][C@@]12CN(Cc3ccc(OC)cc3)C[C@]1([H])OCC(=O)N2Cc1nccn1C` | - | - | 7.799 | - | -4.411 | - |
| 26 | `CNC(=O)C1CCN(c2cc(C3CCNCC3)nc(C)n2)C1` (stereo not drawn) | - | 11.97 | 19.64 | -2.991 | -1.034 | 3.419 |
| 27 | `COc1cccc(CNc2c(C)cnc3c2c(=O)n(C)c(=O)n3C)c1` | -19.27 | 13.46 | 0.7517 | 7.46 | -58.24 | 14.71 |
| 28 | `Cc1nc(C)n(CC2CCCN2Cc2nnc(-c3ccco3)o2)n1` (stereo not drawn) | -8.957 | 6.25 | -9.196 | -4.758 | 0.9302 | 9.917 |
| 29 | `COC(=O)c1cc2c(=O)[nH]c(=O)n(CCc3ccccc3)c2nc1C` | -0.9185 | -31.91 | 16.6 | -5.745 | 7.21 | 0 |
| 30 | `Oc1ncccc1-c1nc(-c2cccc(CN3CCOCC3)c2)no1` | -21.22 | 16.44 | 13.79 | 0.3792 | 10.28 | 16.87 |
| 31 | `COc1ccc(CN2C[C@@H]3CN(Cc4cccnc4)CCO[C@@H]3C2)cc1` | -33.33 | 14.29 | - | 9.931 | - | 6.667 |
| 32 | `Cn1cc(CN2CCCC23CCN(C(=O)c2cccn2C)CC3)cn1` | 2.033 | -3.922 | - | -7.188 | - | -0.6435 |
| 33 | `CN(C(=O)Cc1cccs1)C1CCN(c2ccccn2)CC1` | -1.331 | 34.48 | 36.21 | -21.46 | -1.833 | 3.655 |
| 34 | `COc1ncnc2c1CCN(Cc1nccs1)CC2.O=C(O)C(F)(F)F` | - | - | 14.45 | - | -1.092 | - |
| 35 | `O=C(c1cnccn1)N1CCCC2(CCN(Cc3ccsc3)CC2)C1` | -16.66 | 6.944 | - | -15.87 | - | -9.741 |
| 36 | `Cc1ccc(F)c(NS(=O)(=O)c2cc3c(c(C(=O)O)c2)OCCO3)c1` | -15.18 | 2.679 | -8.64 | -28.62 | 1.526 | 2.171 |
| 37 | `CS(=O)(=O)N1CCCC12CCN(Cc1nccs1)CC2.O=C(O)C(F)(F)F` | - | - | -29.83 & -3.519 | - | 4.283 | - |
| 38 | `O=C(NC1CCCCC1)c1ccc(Oc2ccc3nncn3n2)cc1` | 0.8673 | 14.29 | -28.98 | -9.338 | 5.687 | -2.892 |
| 39 | `Cl.Cn1nc(C2CCN(C(=O)Cc3ccsc3)CC2)c2cccnc21` | - | - | 2.157 | - | -27.14 | - |
| 40 | `CC(C)COC1CC2(CCN(C(=O)Cc3ccccn3)CC2)C1.O=C(O)C(F)(F)F` | - | - | 49.35 | - | 6.926 | - |
| 41 | `COCCn1ccnc1C1CCN(C(=O)CSc2nnc(C)s2)CC1` | -4.785 | 8.85 | 8.572 | -14.47 | -13.88 | 2.642 |
| 42 | `CN(C)C(=O)C1(C)CN(Cc2cn(C)c3ccccc23)CCO1` (stereo not drawn) | 1.641 | 5.634 | -8.659 | 1.875 | - | -4.988 |

The last 3 entries again:

| structure | A | B | C | D | E | F |
|---|---|---|---|---|---|---|
| `CC(C)COC1CC2(CCN(C(=O)Cc3ccccn3)CC2)C1.O=C(O)C(F)(F)F` | - | - | 49.35 | - | 6.926 | - |
| `COCCn1ccnc1C1CCN(C(=O)CSc2nnc(C)s2)CC1` | -4.785 | 8.85 | 8.572 | -14.47 | -13.88 | 2.642 |
| `CN(C)C(=O)C1(C)CN(Cc2cn(C)c3ccccc23)CCO1` (stereo not drawn) | 1.641 | 5.634 | -8.659 | 1.875 | - | -4.988 |